Data taken from PubChem BioAssay AID328 (DTP/NCI, 2004).
The list does not hold the whole screen: it gathers tests that were run many times, whatever their T/C, doses with no T/C, and many T/C values between a quarter and a half above the control. Further doses and runs are listed elsewhere. T/C is the treated group as % of the vehicle group. Some doses have a count of surviving animals in place of a T/C: the source holds a T/C of zero for them, seemingly a mark for toxic or unscored doses. Some survivor counts are full or nearly so, which does not show that the dose was tolerated: survival well below the control is almost never listed, so the zero probably covers shortened survival too. Survivors were counted at the toxicity check, usually on the fifth day, unless a day is given; later deaths do not show. Schedules are NCI's codes, read here as Q, the interval in days (D) or hours (H), X, the number of doses. Some doses were run more than once; the results are listed from low to high. Where survival is the endpoint, the PubChem record calls one and a half times the control and up active, and a quarter to a half above the control has no call in these data; cut-offs in other NCI protocols can differ. Some T/C values are followed by the survivors on the day toxicity was checked, most often the fifth; without a count, all were alive then. Starred links: 1 amine or outer side, 2 acyl side, 3 side chain; linkers in the order of their positions; H or OH if unused. Positions of bridges follow the written chain, without caps; N, C: chain ends. Non-standard residues stand in square brackets, D forms with d. Residues, ends and D or L forms follow the SMILES beside them. Chains are numbered I, II in the order given. Actinocin(1to9) = Cc1c2oc3c(C)ccc(C(=O)[*:2])c3nc-2c(C(=O)[*:1])c(N)c1=O; X3 = O=C1CC(C(=O)[*:2])N([*:1])C1; NMeV = CN[CH](C(=O)O)C(C)C; Sar = CNCC(=O)O

Test system: BDF1 mice, P388 leukemia ip, median survival T/C
Test: NCI In Vivo Anticancer Drug Screen. Data for tumor model P388 Leukemia (intraperitoneal) in B6D2F1 (BDF1) mice
Details: T/C endpoint: median survival time, higher T/C = longer survival
Method in brief: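 Antitumour effect was judged in vivo: survival in drug-treated mice, normalised to that of vehicle-dosed controls, gives the reported T/C.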

[1] = dose: 400.0 mg/kg/injection, schedule: Q01DX009 (ip), vehicle: Klucel (hydroxypropylcellulose) (HPC)
[2] = dose: 400.0 mg/kg/injection, schedule: Q01DX009 (ip), vehicle: saline with Tween-80
[3] = dose: 200.0 mg/kg/injection, schedule: Q04DX003 (ip), vehicle: Klucel (hydroxypropylcellulose) (HPC)
[4] = dose: 200.0 mg/kg/injection, schedule: Q04DX003 (ip), vehicle: saline with Tween-80
[5] = dose: 400.0 mg/kg/injection, schedule: Q04DX003 (ip), vehicle: saline with Tween-80
[6] = dose: 100.0 mg/kg/injection, schedule: Q01DX009 (ip), vehicle: saline with Tween-80
[7] = dose: 100.0 mg/kg/injection, schedule: Q04DX003 (ip), vehicle: saline with Tween-80
[8] = dose: 50.0 mg/kg/injection, schedule: Q01DX009 (ip), vehicle: saline
[9] = dose: 200.0 mg/kg/injection, schedule: Q01DX009 (ip), vehicle: saline with Tween-80
[10] = dose: 50.0 mg/kg/injection, schedule: Q04DX003 (ip), vehicle: saline with Tween-80
[11] = dose: 50.0 mg/kg/injection, schedule: Q01DX005 (ip), vehicle: saline with Tween-80

Cc1c2oc3c(C)ccc(C(=O)NC4C(=O)NC(C(C)C)C(=O)N5CCCC5C(=O)N(C)CC(=O)N(C)C(C(C)C)C(=O)OC4C)c3nc-2c(C(=O)NC2C(=O)NC(C(C)C)C(=O)N3CC(=O)CC3C(=O)N(C)CC(=O)N(C)C(C(C)C)C(=O)OC2C)c(N)c1=O (centres undefined) (I: TV[X3][Sar][NMeV] / II: TVP[Sar][NMeV]; ester I:1-I:C, II:1-II:C; linker I:N-II:N via Actinocin(1to9); configuration not given here)
T/C (dose: 3.1 micrograms/kg/injection, schedule: Q01DX009 (ip), vehicle: water): 142 % of control [8 of 9 alive]
T/C (dose: 6.2 micrograms/kg/injection, schedule: Q01DX009 (ip), vehicle: water): 137 % of control
T/C (dose: 12.5 micrograms/kg/injection, schedule: Q01DX001 (ip), vehicle: water): 137 % of control
T/C (dose: 18.7 micrograms/kg/injection, schedule: Q04DX003 (ip), vehicle: water): 140 % of control
T/C (dose: 100.0 micrograms/kg/injection, schedule: Q01DX001 (ip), vehicle: water): 149 % of control
survivor count (dose: 200.0 micrograms/kg/injection, schedule: Q01DX001 (ip), vehicle: water): 2 of 10

Cc1ccc(C2(C(=O)O)CCCCC2)cc1
survivor count [1]: 5 of 6

[CH3][Sn]([CH3])([CH3])[O]C(=O)CCl
survivor count (dose: 3.0 mg/kg/injection, schedule: Q01DX009 (ip), vehicle: saline): 0 of 6

O=C1c2ccccc2C(=O)c2c(NCCN3CCNCC3)ccc(NCCN3CCNCC3)c21
T/C (dose: 6.25 mg/kg/injection, schedule: Q01DX009 (ip), vehicle: water): 125 % of control
T/C (dose: 12.5 mg/kg/injection, schedule: Q01DX009 (ip), vehicle: water): 127 % of control
T/C (dose: 25.0 mg/kg/injection, schedule: Q01DX009 (ip), vehicle: water): 139 % of control
T/C (dose: 50.0 mg/kg/injection, schedule: Q01DX009 (ip), vehicle: water): 145 % of control
survivor count (dose: 100.0 mg/kg/injection, schedule: Q01DX009 (ip), vehicle: water): 2 of 6

CS(=O)(=O)OCCC(=O)N1CCN(C(=O)CCOS(C)(=O)=O)CC1
T/C (dose: 180.0 mg/kg/injection, schedule: Q01DX010 (ip), vehicle: saline): 131 % of control

COc1ccc(C2CCCCC2O)cc1 (centres undefined)
survivor count [1]: 2 of 6

CC1=NN(c2ccccc2)C(=O)C1=Nc1c(C)[nH]n(-c2ccccc2)c1=O
survivor count (dose: 15.0 mg/kg/injection, schedule: Q01DX009 (ip), vehicle: saline with Tween-80): 6 of 7

CNc1nc(N)nc(Nc2ccc(I)cc2)c1N=O
survivor count [2]: 5 of 6

CN(C(=S)SSC(=S)N(C)c1ccccc1)c1ccccc1
survivor count (dose: 100.0 mg/kg/injection, schedule: Q01DX001 (ip), vehicle: Klucel (hydroxypropylcellulose) (HPC)): 6 of 6

O=CNC(Cc1ccc(N(CCCl)CCCl)cc1)C(=O)O (centres undefined)
T/C (dose: 11.0 mg/kg/injection, schedule: Q04DX003 (ip), vehicle: saline): 140 % of control
T/C (dose: 19.0 mg/kg/injection, schedule: Q04DX003 (ip), vehicle: Klucel (hydroxypropylcellulose) (HPC)): 125 % of control
T/C (dose: 90.0 mg/kg/injection, schedule: Q04DX003 (ip), vehicle: Klucel (hydroxypropylcellulose) (HPC)): 136 % of control
T/C (dose: 100.0 mg/kg/injection, schedule: Q01DX009 (ip), vehicle: Klucel (hydroxypropylcellulose) (HPC)): 136 % of control
survivor count (dose: 200.0 mg/kg/injection, schedule: Q01DX009 (ip), vehicle: Klucel (hydroxypropylcellulose) (HPC)): 5 of 6
survivor count [3]: 4 of 6
survivor count [4]: 6 of 6
survivor count (dose: 300.0 mg/kg/injection, schedule: Q04DX003 (ip), vehicle: Klucel (hydroxypropylcellulose) (HPC)): 3 of 6
survivor count (dose: 400.0 mg/kg/injection, schedule: Q04DX003 (ip), vehicle: Klucel (hydroxypropylcellulose) (HPC)): 6 of 6
survivor count [5]: 0 of 6

O=Cc1ccc(C(Cl)(Cl)Cl)cc1
T/C [6]: 125 % of control
T/C (dose: 264.0 mg/kg/injection, schedule: Q04DX003 (ip), vehicle: saline with Tween-80): 136 % of control
survivor count [2]: 3 of 6
survivor count (dose: 600.0 mg/kg/injection, schedule: Q04DX003 (ip), vehicle: saline with Tween-80): 6 of 6

CSc1nc2[nH]cnc(=S)c2[nH]1
survivor count [7]: 1 of 6
survivor count [4]: 1 of 6
survivor count [5]: 0 of 6

c1ccc2c(c1)CCc1cc3c(nc1-2)-c1ccccc1CC3
T/C [3]: 125 % of control

OCC1OC(n2ccc3c2ncn2nnnc32)C(O)C1O (centres undefined)
survivor count [8]: 6 of 6
survivor count (dose: 100.0 mg/kg/injection, schedule: Q04DX003 (ip), vehicle: saline): 6 of 6

COC1OCC(N=[N+]=[N-])C2OC12 (centres undefined)
survivor count (dose: 400.0 mg/kg/injection, schedule: Q01DX009 (ip), vehicle: water): 2 of 4

CCOC(=O)C1=S=C(SC)N(C)C1=O
T/C [9]: 132 % of control [5 of 6 alive]
survivor count [9]: 1 of 6
survivor count [2]: 0 of 6

Cn1cnc([N+](=O)[O-])c1Sc1nc(N)nc2c1ncn2C1CC(O)C(CO)O1 (centres undefined)
T/C (dose: 3.12 mg/kg/injection, schedule: Q01DX005 (ip), vehicle: Klucel (hydroxypropylcellulose) (HPC)): 135 % of control
T/C (dose: 12.5 mg/kg/injection, schedule: Q01DX005 (ip), vehicle: Klucel (hydroxypropylcellulose) (HPC)): 148 % of control
T/C (dose: 12.5 mg/kg/injection, schedule: Q01DX009 (ip), vehicle: saline): 136 % of control
T/C (dose: 25.0 mg/kg/injection, schedule: Q01DX005 (ip), vehicle: Klucel (hydroxypropylcellulose) (HPC)): 145 % of control
survivor count [8]: 6 of 6
survivor count (dose: 100.0 mg/kg/injection, schedule: Q01DX009 (ip), vehicle: saline): 6 of 6
survivor count (dose: 200.0 mg/kg/injection, schedule: Q04DX003 (ip), vehicle: saline): 6 of 6
survivor count (dose: 400.0 mg/kg/injection, schedule: Q04DX003 (ip), vehicle: saline): 6 of 6

COC1CC(N=[N+]=[N-])C(O)C(C)O1 (centres undefined)
T/C [4]: 125 % of control
T/C [5]: 130 % of control

COc1cc(N(CCCl)CCCl)c(OC)cc1/C=N\Nc1nncn1N
survivor count (dose: 50.0 mg/kg/injection, schedule: Q04DX003 (ip), vehicle: saline sonified): 5 of 6
survivor count (dose: 100.0 mg/kg/injection, schedule: Q04DX003 (ip), vehicle: saline sonified): 2 of 6

CC(C)COC(=O)c1cc(O)c(O)c(O)c1
survivor count [6]: 6 of 6

O=c1ccs[nH]1
survivor count [10]: 4 of 6
survivor count [7]: 0 of 6
survivor count [4]: 0 of 6
survivor count [5]: 0 of 6

CC12CCCCC1=Nc1ccc3ccccc3c12 (centres undefined)
survivor count (dose: 50.0 mg/kg/injection, schedule: Q01DX009 (ip), vehicle: saline + alcohol): 0 of 6
survivor count (dose: 200.0 mg/kg/injection, schedule: Q01DX009 (ip), vehicle: saline + alcohol): 0 of 6

O=NN(CCCl)C(=O)NC1CC2CCC1C2 (centres undefined)
T/C [10]: 131 % of control

Cc1cc(=O)oc2c(N)nccc12
T/C (dose: 25.0 mg/kg/injection, schedule: Q01DX005 (ip), vehicle: saline with Tween-80): 136 % of control
T/C [11]: 128 % of control
survivor count [11]: 4 of 5
survivor count (dose: 100.0 mg/kg/injection, schedule: Q01DX005 (ip), vehicle: saline with Tween-80): 1 of 5 and 2 of 5
survivor count (dose: 200.0 mg/kg/injection, schedule: Q01DX005 (ip), vehicle: saline with Tween-80): 0 of 5

[Cu+2].[O-]c1ccc(Br)c2cccnc12.[O-]c1ccc(Br)c2cccnc12
survivor count (dose: 33.0 mg/kg/injection, schedule: Q04DX003 (ip), vehicle: saline with Tween-80): 6 of 6
T/C [10]: 127 % of control [5 of 6 alive]
